# Data as given in PMC4605311, “Structure of mitochondrial poly(A) RNA polymerase reveals the structural basis for dimerization, ATP selectivity and the SPAX4 disease phenotype” (Nucleic Acids Research, 2015).
# Substitutions are numbered along the chain they refer to. In names and notes the source's numbering stands. No constants are given. Whether binding was seen depends on the method and setting. Binding seen in cells or lysates may run through a third protein. Some results given as binding are weak or reduced against the parent protein; the word gives no strength. Tags and fused reporters may be left off the sequences shown.
# T1: maltose-binding protein-tagged WT chicken mtPAP (Gallus gallus) (UniProt F1NBW0)
# T1 sequence: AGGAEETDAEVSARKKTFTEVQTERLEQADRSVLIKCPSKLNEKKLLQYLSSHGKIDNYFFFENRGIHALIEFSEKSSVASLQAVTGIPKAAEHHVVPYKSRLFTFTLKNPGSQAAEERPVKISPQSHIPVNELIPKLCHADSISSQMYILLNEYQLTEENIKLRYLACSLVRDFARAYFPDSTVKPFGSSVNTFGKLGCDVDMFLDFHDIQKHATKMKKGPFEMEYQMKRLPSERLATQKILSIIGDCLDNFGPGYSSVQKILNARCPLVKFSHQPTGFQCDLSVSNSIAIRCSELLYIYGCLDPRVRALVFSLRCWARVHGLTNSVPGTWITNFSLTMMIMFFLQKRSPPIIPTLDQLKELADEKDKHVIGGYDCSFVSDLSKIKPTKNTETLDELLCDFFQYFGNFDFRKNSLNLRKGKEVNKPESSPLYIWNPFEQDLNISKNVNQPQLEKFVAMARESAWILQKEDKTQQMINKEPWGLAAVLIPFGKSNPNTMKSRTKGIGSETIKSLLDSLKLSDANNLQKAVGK
# B1: His-tagged D237N chicken mtPAP (enzyme, UniProt F1NBW0 37-568)
# chain: T1 sequence with D201N
# Molecular target: T1, maltose-binding protein-tagged WT chicken mtPAP (Gallus gallus)
# Experiment: pull-down; co-expression of MBP–mtPAP WT and His-tagged D237N mtPAP in KRX cells; soluble lysate on amylose resin, eluted with 40 mM maltose, then HisTrap column; SDS gel of the product
binder,measurement,value
B1,binding,binds
